The target of the assay is Lysine-specific demethylase 5C (KDM5C) (UniProt P41229). Put plainly: co-IP; cell lysates after KDM5C overexpression, precipitated overnight at 4 °C with the indicated antibody and protein A-agarose, washed five times with immunoprecipitation-HAT buffer, Western blot.

Chains of the proteins cited; added tags and fusions are not shown.
UniProt P41229: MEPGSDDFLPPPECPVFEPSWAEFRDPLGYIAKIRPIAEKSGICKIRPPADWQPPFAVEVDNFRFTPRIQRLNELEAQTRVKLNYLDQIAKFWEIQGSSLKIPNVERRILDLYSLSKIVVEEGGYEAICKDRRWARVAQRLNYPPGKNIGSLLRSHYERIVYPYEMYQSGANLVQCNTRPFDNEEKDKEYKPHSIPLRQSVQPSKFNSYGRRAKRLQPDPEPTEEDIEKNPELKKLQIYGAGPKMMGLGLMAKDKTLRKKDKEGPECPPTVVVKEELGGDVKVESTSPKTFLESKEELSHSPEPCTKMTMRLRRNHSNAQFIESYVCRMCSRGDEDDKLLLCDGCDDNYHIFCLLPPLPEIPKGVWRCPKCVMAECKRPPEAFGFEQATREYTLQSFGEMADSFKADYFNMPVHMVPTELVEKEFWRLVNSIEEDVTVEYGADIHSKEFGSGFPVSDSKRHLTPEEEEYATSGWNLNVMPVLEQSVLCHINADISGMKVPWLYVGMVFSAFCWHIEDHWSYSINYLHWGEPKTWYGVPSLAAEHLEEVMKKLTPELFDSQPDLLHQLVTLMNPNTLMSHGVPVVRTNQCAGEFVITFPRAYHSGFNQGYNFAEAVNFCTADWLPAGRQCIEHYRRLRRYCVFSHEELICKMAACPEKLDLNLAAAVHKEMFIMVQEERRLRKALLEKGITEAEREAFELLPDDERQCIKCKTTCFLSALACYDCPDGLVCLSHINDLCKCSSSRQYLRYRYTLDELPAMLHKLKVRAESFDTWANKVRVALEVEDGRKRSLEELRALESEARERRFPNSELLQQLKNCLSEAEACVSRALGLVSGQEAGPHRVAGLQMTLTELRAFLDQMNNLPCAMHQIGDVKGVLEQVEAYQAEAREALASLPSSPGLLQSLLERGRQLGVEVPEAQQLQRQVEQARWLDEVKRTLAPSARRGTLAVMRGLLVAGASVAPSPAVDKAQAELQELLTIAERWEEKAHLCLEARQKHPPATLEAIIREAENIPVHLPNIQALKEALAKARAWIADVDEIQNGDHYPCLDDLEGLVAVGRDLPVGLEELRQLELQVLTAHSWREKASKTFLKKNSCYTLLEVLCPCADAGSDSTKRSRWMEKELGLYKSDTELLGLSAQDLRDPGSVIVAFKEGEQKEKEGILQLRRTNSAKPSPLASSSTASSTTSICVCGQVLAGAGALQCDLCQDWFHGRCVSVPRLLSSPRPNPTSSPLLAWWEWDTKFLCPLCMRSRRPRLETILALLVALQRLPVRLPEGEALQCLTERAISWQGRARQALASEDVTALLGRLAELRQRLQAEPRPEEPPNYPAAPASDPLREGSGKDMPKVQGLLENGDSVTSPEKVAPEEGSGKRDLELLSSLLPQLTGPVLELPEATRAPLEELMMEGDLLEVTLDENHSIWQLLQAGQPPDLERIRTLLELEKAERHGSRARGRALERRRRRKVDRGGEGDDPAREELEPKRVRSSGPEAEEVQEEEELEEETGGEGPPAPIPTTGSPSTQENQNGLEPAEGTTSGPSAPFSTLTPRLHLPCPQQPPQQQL
UniProt O75461: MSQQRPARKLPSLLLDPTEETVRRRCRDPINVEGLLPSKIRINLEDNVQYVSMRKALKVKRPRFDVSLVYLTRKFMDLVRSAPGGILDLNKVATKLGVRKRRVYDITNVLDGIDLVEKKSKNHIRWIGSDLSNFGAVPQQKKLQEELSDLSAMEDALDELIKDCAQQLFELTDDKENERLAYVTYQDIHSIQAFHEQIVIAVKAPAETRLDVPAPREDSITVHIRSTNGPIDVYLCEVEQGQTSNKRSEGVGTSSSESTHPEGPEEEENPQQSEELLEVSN

We go through 1 substance from PMC8897952.

No constants are given. Whether binding was seen depends on the method and setting. Binding seen in cells or lysates may run through a third protein. Some entries that bind do so weakly or less than the wild type.

Regarding “Transcription factor E2F6 (from UniProt O75461 1-281)”, the binding entry is reported as “binds”.
